About 95 (3%) of roughly 3,300 compounds showed an effect of 50% or more. The list shows a part of the results.
What follows are compounds tested on HCoV-229E. Settings: 24 h, 10 µM; inhibitor.
Parameters: species or system Huh-7; HTS, protection from HCoV-229E induced cell death, luminescent cell viability (CellCounting-Lite 2.0), inhibition rate

Row | SMILES | 229E Inhibition rate
1 | CN1[C@@H]2CC[C@H]1CC(O)C2 (stereo partly shown) [Tropine] | 8.6%
2 | NC(=O)Cc1ccccc1 [2-Phenylacetamide] | 20.1%
3 | CCCCOC(=O)c1ccccc1C(=O)OCC(C)C [Butyl isobutyl phthalate] | 7.7%
4 | CCN1C[C@]2(COC)[C@H](O)C[C@H](OC)[C@@]34[C@@H]5C[C@@]6(O)[C@H](OC(=O)c7ccccc7)[C@@H]5[C@@](O)([C@@H]([C@H](OC)[C@H]23)[C@@H]14)[C@@H](O)[C@@H]6OC [Benzoylaconine] | 0%
5 | CCCCCc1cc(O)cc(O)c1 [Olivetol] | 12.2%
6 | CCN1C[C@]2(COC)[C@H](O)C[C@H](OC)[C@]34C1[C@H]([C@H](OC)[C@H]23)[C@]1(O)[C@H]2[C@@H](O)[C@](O)(C[C@H]24)[C@@H](OC)[C@@H]1O [Aconine] | 36%
7 | O=C1C=CC(=O)c2c(O)ccc(O)c21 [Naphthazarin] | 5.6%
8 | COC(=O)[C@]12OC[C@]34[C@H]([C@@H](O)[C@@H]1O)[C@@]1(C)CC(=O)C(O)=C(C)[C@@H]1C[C@H]3OC(=O)[C@H](OC(=O)/C=C(\C)C(C)(C)OC(C)=O)[C@@H]24 [Bruceantinol] | 0%
9 | C[C@]12CC[C@H](O)C[C@H]1CC[C@@H]1[C@@H]2[C@H](O)C(=O)[C@]2(C)[C@@H](c3ccc(=O)oc3)CC[C@]12O [Arenobufagin] | 0%
10 | C[C@H]1CC[C@@H]2N(C1)C[C@H]1[C@@H]3C[C@H]4[C@@H](C[C@H](O)[C@H]5C[C@@H](O)CC[C@@]54C)[C@@H]3CC[C@@H]1[C@]2(C)O [Peimine] | 26.7%
11 | COC[C@]12CN(C)[C@@H]3[C@@H]4[C@H](OC)[C@H]1[C@@]3([C@@H](OC)C[C@H]2O)[C@@H]1C[C@@]2(O)[C@H](OC(=O)c3ccccc3)[C@@H]1[C@]4(OC(C)=O)[C@@H](O)[C@@H]2OC [Mesaconitine] | 6.2%
12 | CCCCC/C=C/C/C=C/CCCCCCCC(=O)O[C@H](COC(=O)CCCCCCCCCCCCCCC)COP(=O)([O-])OCC[N+](C)(C)C [Lecithin] | 5.1
13 | CO[C@@H]1C[C@H](O[C@H]2CC[C@@]3(C)[C@H](CC[C@@]45O[C@@]46CC[C@H](C4=CC(=O)OC4)[C@@]6(C)CC[C@H]35)C2)O[C@H](C)[C@@H]1O [Adynerin] | 9.5%
14 | O=C(O)CC[N+](=O)[O-] [3-Nitropropanoic acid] | 36.6%
15 | COC(=O)C[C@](O)(CCC(C)(C)O)C(=O)O[C@@H]1C(OC)=C[C@]23CCCN2CCc2cc4c(cc2[C@H]13)OCO4 [Harringtonine] | 14.4%
16 | O=[N+]([O-])c1ncc[nH]1 [Azomycin] | 0%
17 | CCN1C[C@]2(COC)CC[C@H](OC)[C@]34C1[C@H]([C@H](OC)[C@H]23)[C@@]1(OC(C)=O)C[C@H](OC)[C@@]2(O)C[C@@H]4[C@@H]1[C@H]2OC(=O)c1ccc(OC)cc1 [Crassicauline A] | 19.4%

Single values from above:
CCN1C[C@]2(COC)CC[C@H](OC)[C@]34C1[C@H]([C@H](OC)[C@H]23)[C@@]1(OC(C)=O)C[C@H](OC)[C@@]2(O)C[C@@H]4[C@@H]1[C@H]2OC(=O)c1ccc(OC)cc1 [Crassicauline A] | 229E Inhibition rate: 19.4%
CCCCC/C=C/C/C=C/CCCCCCCC(=O)O[C@H](COC(=O)CCCCCCCCCCCCCCC)COP(=O)([O-])OCC[N+](C)(C)C [Lecithin] | 229E Inhibition rate: 5.1

(next part)

Row | SMILES | 229E Inhibition rate
18 | COc1cc([C@@H]2c3cc4c(cc3C(=O)[C@H]3COC(=O)[C@H]23)OCO4)cc(OC)c1OC [Podophyllotoxone] | 10.4%
19 | C=C1C/C(=C/C)C(=O)O[C@@H]2CCN3CC=C(COC(=O)[C@]1(C)O)[C@H]23 [Seneciphylline] | 7.3
20 | O=C(C[C@@H]1NCCC[C@H]1O)Cn1cnc2ccccc2c1=O [Febrifugine] | 27.1%
21 | COC[C@@]12CC[C@H](OC)[C@]34C([C@H]([C@H](OC)[C@H]13)[C@]1(O)[C@H]3[C@@H](OC(=O)c5ccccc5)[C@](O)(C[C@H]34)[C@@H](OC)[C@@H]1O)N(C)C2 [Benzoylhypaconine] | 7.7%
22 | COc1cc2c(cc1OC)[C@@H]1C(=O)c3ccc4c(c3O[C@@H]1CO2)CC(C(C)C)O4 (stereo partly shown) [Dihydrorotenone] | 6.6%
23 | CC(=O)OC(C)(C)/C=C/C(=O)[C@](C)(O)[C@H]1[C@H](O)C[C@@]2(C)[C@@H]3CC=C4[C@@H](C=C(O)C(=O)C4(C)C)[C@]3(C)C(=O)C[C@]12C [Cucurbitacin E] | 3.5%
24 | COc1cc2c(cc1OC)[C@@H]1C(=O)c3ccc4c(c3O[C@@H]1CO2)C=CC(C)(C)O4 [Deguelin] | 1.3
25 | C[C@H]1CC[C@@H]2N(C1)C[C@H]1[C@@H]3C[C@H]4[C@@H](C[C@@H](O)[C@H]5C[C@@H](O)CC[C@@]54C)[C@@H]3CC[C@@H]1[C@]2(C)O [Isoverticine] | 12.2%
26 | C[C@]12CC[C@H](O)C[C@H]1CC[C@@H]1[C@@H]2CC[C@]2(C)[C@@H](c3ccc(=O)oc3)C[C@H]3O[C@]132 [Resibufogenin] | 14.5%
27 | CC(C)(O)[C@@H]1[C@H]2OC(=O)[C@@H]1[C@]1(O)C[C@H]3O[C@]34C(=O)O[C@H]2[C@]14C [Picrotin] | 42.9%
28 | CC(C)(O)/C=C/C(=O)[C@](C)(O)[C@H]1[C@H](O)C[C@@]2(C)[C@@H]3CC=C4[C@@H](C[C@H](O)C(=O)C4(C)C)[C@]3(C)C(=O)C[C@]12C [Cucurbitacin D] | 17.2%
29 | CCN1C[C@]2(COC)CC[C@H](O)[C@]34C1[C@@](O)([C@@H](OC)[C@H]23)[C@@]1(O)C[C@H](OC)[C@H]2C[C@@H]4[C@@H]1[C@H]2OC [Delsoline] | 8.5%
30 | COC1c2c(ccc3c2OCO3)-c2ccc3cc4c(cc3c2N1C)OCO4 (stereo not shown) [6-Methoxydihydrosanguinarine] | 4.4%
31 | CO[C@H]1C[C@H](O[C@H]2CC[C@]3(C)[C@H]4CC[C@]5(C)[C@@H](C6=CC(=O)OC6)CC[C@]5(O)[C@@H]4CC[C@]3(O)C2)O[C@H](C)[C@H]1O[C@@H]1O[C@H](CO)[C@@H](O)[C@H](O)[C@H]1O [Periplocin] | 25
32 | COc1cc2ccc(=O)oc2c2ccoc12 [Sphondin] | 14.9%
33 | COc1ccccc1OC [1,2-Dimethoxybenzene] | 40.8%
34 | CCC1CCC(=O)O1 (stereo not shown) [γ-Hexalactone] | 0%
